According to the supplement of paper PMC12595434, “Development of retinoid nuclear receptor pathway antagonists through targeting aldehyde dehydrogenase 1A3” (iScience, 2025):
The other results are listed elsewhere or left out. This is a noisy data set.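 Tm was set to 64 °C where no melting was found, and many curves are irregular.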

Amino acid sequences for entries named in this document (tags omitted). A change or cut given only in a name is not applied to a line headed by its entry.
UniProt O60331: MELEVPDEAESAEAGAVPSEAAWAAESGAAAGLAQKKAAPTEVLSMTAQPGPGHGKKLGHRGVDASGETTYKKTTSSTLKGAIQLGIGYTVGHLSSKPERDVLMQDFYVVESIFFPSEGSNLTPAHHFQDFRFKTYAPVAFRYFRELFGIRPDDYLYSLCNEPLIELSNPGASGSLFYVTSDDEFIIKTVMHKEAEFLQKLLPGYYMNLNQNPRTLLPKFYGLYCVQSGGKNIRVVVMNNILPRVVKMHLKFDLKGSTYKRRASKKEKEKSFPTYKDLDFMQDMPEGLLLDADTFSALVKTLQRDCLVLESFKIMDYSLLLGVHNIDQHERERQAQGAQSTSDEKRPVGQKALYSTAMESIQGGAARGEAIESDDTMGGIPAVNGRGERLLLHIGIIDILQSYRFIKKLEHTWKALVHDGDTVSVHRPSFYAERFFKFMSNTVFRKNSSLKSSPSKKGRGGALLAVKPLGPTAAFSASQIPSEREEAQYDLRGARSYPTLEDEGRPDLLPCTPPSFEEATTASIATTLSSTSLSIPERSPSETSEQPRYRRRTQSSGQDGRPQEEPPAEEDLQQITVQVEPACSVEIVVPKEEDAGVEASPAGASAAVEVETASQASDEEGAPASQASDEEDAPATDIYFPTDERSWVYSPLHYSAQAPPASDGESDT
UniProt O60462, whole entry: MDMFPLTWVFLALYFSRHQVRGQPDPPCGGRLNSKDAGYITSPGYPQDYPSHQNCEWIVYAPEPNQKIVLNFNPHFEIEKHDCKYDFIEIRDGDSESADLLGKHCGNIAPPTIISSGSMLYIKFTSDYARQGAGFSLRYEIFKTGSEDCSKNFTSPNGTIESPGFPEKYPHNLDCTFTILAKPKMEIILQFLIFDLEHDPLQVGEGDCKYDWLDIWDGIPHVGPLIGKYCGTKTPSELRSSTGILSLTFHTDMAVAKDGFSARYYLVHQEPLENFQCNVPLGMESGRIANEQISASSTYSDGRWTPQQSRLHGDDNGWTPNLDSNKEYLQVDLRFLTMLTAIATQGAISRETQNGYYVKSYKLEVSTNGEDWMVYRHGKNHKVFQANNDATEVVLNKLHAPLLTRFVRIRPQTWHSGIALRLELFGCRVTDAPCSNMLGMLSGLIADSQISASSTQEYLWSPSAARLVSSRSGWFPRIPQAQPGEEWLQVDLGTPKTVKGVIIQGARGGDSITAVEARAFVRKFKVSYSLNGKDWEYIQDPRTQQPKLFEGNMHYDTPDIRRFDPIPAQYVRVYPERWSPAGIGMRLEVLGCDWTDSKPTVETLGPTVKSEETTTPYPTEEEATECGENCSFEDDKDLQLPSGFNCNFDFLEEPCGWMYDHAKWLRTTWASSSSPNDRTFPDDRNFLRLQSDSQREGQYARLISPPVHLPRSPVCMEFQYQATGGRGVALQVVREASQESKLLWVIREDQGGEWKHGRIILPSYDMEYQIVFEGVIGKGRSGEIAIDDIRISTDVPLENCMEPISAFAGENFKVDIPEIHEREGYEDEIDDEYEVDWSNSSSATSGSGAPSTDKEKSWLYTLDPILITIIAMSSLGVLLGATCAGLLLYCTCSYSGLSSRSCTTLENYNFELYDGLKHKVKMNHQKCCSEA
UniProt O75312: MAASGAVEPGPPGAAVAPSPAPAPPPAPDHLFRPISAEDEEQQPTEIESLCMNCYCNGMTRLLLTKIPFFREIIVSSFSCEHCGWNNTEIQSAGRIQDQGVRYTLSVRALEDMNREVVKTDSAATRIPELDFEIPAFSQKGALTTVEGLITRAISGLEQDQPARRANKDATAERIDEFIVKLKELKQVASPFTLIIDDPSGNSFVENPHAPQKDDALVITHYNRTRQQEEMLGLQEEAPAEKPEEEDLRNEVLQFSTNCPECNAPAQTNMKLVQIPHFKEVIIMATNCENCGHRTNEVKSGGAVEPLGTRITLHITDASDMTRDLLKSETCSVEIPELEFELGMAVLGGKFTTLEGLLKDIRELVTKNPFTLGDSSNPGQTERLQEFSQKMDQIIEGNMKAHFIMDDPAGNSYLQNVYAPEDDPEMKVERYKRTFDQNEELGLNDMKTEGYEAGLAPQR
UniProt O75815: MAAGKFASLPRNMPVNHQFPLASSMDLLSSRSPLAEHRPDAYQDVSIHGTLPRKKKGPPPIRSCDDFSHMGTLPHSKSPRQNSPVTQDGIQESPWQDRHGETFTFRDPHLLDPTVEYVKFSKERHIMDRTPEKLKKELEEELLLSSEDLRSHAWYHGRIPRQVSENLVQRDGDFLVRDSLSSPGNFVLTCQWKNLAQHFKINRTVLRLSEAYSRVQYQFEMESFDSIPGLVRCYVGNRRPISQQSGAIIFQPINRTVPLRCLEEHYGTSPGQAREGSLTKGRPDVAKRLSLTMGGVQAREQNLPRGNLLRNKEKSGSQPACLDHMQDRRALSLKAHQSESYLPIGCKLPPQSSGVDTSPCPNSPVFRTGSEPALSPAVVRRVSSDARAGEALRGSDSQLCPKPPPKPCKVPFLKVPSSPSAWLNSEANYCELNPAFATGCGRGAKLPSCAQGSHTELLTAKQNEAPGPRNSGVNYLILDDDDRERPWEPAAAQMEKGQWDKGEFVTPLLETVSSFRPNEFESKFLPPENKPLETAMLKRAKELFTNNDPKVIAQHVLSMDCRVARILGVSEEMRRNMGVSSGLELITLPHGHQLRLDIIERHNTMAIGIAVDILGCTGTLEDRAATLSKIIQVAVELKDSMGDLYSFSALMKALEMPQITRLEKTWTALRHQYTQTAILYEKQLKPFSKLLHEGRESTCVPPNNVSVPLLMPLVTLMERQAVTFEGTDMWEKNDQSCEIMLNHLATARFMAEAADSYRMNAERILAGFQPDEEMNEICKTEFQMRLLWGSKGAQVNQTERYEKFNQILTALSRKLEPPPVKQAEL
UniProt O75586: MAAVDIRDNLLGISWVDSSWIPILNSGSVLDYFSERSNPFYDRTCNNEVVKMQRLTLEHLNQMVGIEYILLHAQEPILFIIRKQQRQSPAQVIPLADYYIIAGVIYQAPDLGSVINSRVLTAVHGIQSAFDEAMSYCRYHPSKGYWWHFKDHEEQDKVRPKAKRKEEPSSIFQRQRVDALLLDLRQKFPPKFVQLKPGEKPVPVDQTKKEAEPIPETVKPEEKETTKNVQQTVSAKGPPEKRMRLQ
UniProt O75306, whole entry: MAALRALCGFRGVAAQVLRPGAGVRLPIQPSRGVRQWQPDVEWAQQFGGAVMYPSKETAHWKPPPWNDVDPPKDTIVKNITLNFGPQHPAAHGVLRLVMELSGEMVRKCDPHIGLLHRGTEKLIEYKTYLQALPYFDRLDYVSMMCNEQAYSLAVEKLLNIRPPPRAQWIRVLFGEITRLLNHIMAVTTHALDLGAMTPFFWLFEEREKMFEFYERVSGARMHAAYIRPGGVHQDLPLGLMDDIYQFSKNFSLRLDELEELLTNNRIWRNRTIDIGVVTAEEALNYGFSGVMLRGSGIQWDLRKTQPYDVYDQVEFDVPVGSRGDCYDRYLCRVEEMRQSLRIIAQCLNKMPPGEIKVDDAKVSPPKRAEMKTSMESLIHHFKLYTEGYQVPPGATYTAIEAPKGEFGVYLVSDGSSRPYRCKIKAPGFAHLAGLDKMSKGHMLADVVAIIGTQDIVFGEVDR
UniProt O75153: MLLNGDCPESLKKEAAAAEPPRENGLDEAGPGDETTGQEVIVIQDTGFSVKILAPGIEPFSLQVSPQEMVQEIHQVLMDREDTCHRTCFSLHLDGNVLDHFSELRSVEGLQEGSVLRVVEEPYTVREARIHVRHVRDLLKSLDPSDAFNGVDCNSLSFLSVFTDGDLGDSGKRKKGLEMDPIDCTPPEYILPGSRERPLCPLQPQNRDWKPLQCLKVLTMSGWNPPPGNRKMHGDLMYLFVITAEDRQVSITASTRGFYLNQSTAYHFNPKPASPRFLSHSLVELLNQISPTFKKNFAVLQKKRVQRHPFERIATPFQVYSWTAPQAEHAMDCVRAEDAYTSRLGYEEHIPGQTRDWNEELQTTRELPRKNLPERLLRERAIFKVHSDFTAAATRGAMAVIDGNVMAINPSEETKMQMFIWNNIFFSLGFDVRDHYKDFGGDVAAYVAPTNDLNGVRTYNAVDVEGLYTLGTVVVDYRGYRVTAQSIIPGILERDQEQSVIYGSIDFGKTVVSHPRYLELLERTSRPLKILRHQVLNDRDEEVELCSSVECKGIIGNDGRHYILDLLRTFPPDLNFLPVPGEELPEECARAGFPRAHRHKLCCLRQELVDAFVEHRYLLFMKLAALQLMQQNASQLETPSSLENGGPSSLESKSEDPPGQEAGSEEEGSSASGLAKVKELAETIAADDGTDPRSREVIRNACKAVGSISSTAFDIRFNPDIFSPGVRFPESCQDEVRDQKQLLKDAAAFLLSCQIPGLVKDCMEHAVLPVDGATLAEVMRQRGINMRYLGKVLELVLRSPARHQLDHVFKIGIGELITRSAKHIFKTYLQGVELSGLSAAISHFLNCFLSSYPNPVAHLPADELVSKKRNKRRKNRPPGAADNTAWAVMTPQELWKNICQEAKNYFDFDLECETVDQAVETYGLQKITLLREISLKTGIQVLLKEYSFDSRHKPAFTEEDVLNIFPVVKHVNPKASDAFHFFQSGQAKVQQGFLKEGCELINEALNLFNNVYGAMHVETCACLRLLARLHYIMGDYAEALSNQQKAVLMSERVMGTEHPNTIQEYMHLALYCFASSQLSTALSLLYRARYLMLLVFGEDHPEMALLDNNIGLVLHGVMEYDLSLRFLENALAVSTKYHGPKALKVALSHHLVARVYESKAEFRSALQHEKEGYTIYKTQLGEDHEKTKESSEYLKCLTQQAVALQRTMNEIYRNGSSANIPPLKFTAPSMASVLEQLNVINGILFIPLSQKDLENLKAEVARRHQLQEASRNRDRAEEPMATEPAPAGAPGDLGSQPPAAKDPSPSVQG
UniProt O60678: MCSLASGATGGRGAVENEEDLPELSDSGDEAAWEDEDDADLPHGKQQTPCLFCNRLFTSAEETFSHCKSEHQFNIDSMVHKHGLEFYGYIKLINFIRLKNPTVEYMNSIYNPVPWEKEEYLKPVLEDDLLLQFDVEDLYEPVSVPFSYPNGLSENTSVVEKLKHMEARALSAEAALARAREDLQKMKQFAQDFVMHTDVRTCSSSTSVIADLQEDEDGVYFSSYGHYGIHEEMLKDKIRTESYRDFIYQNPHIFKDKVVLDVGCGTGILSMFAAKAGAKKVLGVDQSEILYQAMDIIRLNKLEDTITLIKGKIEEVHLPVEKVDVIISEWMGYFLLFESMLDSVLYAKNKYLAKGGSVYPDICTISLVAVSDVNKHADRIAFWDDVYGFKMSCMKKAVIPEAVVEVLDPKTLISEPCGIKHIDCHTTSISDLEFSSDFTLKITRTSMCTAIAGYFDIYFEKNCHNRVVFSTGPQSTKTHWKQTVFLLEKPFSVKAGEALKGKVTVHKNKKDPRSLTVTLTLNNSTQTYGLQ
UniProt O60716: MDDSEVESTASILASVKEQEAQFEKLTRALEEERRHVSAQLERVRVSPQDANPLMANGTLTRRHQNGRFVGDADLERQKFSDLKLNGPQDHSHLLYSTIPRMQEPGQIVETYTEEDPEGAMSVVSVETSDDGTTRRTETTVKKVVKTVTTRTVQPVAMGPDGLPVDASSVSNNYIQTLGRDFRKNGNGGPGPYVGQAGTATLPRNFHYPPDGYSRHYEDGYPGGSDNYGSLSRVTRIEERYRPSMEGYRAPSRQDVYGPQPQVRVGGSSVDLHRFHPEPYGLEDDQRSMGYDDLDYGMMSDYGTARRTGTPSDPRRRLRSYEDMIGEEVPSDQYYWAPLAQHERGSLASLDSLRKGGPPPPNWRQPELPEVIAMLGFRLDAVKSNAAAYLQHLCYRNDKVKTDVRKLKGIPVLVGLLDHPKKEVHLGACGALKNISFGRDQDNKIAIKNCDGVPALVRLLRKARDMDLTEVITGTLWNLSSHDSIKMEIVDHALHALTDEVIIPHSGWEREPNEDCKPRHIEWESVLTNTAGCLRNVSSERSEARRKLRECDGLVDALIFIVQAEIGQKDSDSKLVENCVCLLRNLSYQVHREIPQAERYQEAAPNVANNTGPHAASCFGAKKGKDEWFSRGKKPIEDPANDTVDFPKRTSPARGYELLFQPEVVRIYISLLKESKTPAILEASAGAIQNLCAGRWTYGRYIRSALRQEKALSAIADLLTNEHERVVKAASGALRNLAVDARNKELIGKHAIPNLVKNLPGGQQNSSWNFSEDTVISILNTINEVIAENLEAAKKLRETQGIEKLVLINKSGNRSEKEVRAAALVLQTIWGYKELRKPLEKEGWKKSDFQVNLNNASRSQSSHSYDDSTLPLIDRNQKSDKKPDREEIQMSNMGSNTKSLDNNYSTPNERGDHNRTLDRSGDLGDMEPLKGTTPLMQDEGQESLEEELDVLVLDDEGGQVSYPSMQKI
UniProt O43447: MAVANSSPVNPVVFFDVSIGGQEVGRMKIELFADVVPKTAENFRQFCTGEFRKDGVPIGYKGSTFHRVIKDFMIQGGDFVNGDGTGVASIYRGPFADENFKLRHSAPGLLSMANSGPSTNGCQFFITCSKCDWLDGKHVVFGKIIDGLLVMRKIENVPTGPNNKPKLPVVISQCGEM

Compound: CCc1cnccc1C(=O)Nc1cc2c(cc1F)NC(=O)CC2
Experiment: melting temperature shift (DMSO Tm minus MBE1-treated Tm) in cellular thermal proteome profiling; higher = less thermal stabilization by MBE1 (negative = stabilized by MBE1)
Conditions: A375

Target	melting temperature shift (MBE1 concentration: 100 nM)	melting temperature shift (MBE1 concentration: 1 uM)
FADS1 (UniProt O60427)	0.36 °C	-0.281 °C
HUS1 (UniProt O60921)	-1.68 °C	1.69 °C
SLC25A17 (UniProt O43808)	-0.853 °C	-1.24 °C
B4GAT1 (UniProt O43505)	-0.503 °C	0.684 °C
LCMT2 (UniProt O60294)	0.362 °C	0.202 °C
PSMD10 (UniProt O75832)	-0.342 °C	-0.391 °C
PIP5K1C (UniProt O60331)	1.65 °C	0.598 °C
RNASEH2A (UniProt O75792)	0.22 °C	-0.0366 °C
ZC3H11A (UniProt O75152)	-0.0897 °C	-0.404 °C
PLOD3 (UniProt O60568)	-0.932 °C	0.416 °C
UniProt O75461	-1.67 °C	-0.474 °C
UniProt O75525	-0.282 °C	-0.355 °C
UniProt O60462	-1.63 °C	0.397 °C
PSIP1 (UniProt O75475)	-1.01 °C	0.348 °C
CBR3 (UniProt O75828)	-0.00611 °C	0.519 °C
PDE6D (UniProt O43924)	0.181 °C	-0.342 °C
UniProt O43716	0.898 °C	1.86 °C
GCAT (UniProt O75600)	-0.763 °C	-1.46 °C
ZPR1 (UniProt O75312)	-0.818 °C	0.0488 °C
EFCAB14 (UniProt O75071)	-3.61 °C	0.892 °C
BCAR3 (UniProt O75815)	-0.167 °C	-0.416 °C
PPM1B (UniProt O75688)	-0.407 °C	0.281 °C
CCDC22 (UniProt O60826)	0.507 °C	-0.0916 °C

Target	melting temperature shift (MBE1 concentration: 100 nM)	melting temperature shift (MBE1 concentration: 1 uM)
MGEA5 (UniProt O60502)	-0.49 °C	-0.153 °C
LYPLA1 (UniProt O75608)	-0.629 °C	0.501 °C
LRP6 (UniProt O75581)	-0.463 °C	-0.0939 °C
UniProt O60287	-0.737 °C	0.391 °C
PLXNA2 (UniProt O75051)	-1.94 °C	-0.226 °C
TSC22D2 (UniProt O75157)	-1.04 °C	0.81 °C
SNX2 (UniProt O60749)	-0.299 °C	-0.263 °C
ACTN4 (UniProt O43707)	-1.77 °C	-1.47 °C
GBAS (UniProt O75323)	-0.731 °C	-0.134 °C
MED6 (UniProt O75586)	-1.01 °C	0.281 °C
UniProt O75387	-5.2 °C	-3.3 °C
PFKFB2 (UniProt O60825)	-0.568 °C	0.0977 °C
NDUFS2 (UniProt O75306)	-0.44 °C	0.189 °C
FAM20B (UniProt O75063)	0.91 °C	0.348 °C
AHCYL1 (UniProt O43865)	-0.0201 °C	0.349 °C
MAN1A2 (UniProt O60476)	-0.657 °C	0.241 °C
RANBP6 (UniProt O60518)	-0.194 °C	0.318 °C
CLUH (UniProt O75153)	0.464 °C	0.452 °C
RPS6KA5 (UniProt O75582)	-0.358 °C	-0.339 °C
PRMT3 (UniProt O60678)	0.659 °C	0.385 °C
TOM1 (UniProt O60784)	0.446 °C	0.14 °C
GIGYF1 (UniProt O75420)	0.598 °C	-0.889 °C
PLIN3 (UniProt O60664)	-2.69 °C	0.716 °C

Target	melting temperature shift (MBE1 concentration: 100 nM)	melting temperature shift (MBE1 concentration: 1 uM)
UniProt O75529	-0.484 °C	-0.179 °C
MGRN1 (UniProt O60291)	-2.37 °C	1.01 °C
ECI2 (UniProt O75521)	0.892 °C	0.434 °C
UniProt O60858	-0.835 °C	-1.07 °C
UniProt O60266	0.824 °C	-2.32 °C
UniProt O75326	-1.41 °C	-1.25 °C
ZMPSTE24 (UniProt O75844)	-1.47 °C	-3.02 °C
CTNND1 (UniProt O60716)	0.301 °C	0.0706 °C
FOXO3 (UniProt O43524)	-2.08 °C	3.61 °C
UniProt O75771	-0.753 °C	0.721 °C
UniProt O75509	-1.13 °C	2.42 °C
KIF1B (UniProt O60333)	0.763 °C	0.409 °C
UniProt O60711	2.1 °C	-1.4 °C
UniProt O60229	-1.09 °C	-5 °C
PPP6R2 (UniProt O75170)	0.221 °C	2.54 °C
UniProt O60336	-0.964 °C	-0.546 °C
CDC40 (UniProt O60508)	-0.127 °C	0.436 °C
WDR62 (UniProt O43379)	-0.0423 °C	-0.686 °C
PPIH (UniProt O43447)	0.171 °C	0.256 °C
UniProt O75037	-0.513 °C	0.147 °C
PEX14 (UniProt O75381)	-3.29 °C	0.635 °C
MRPS14 (UniProt O60783)	-0.189 °C	0.626 °C
ATRN (UniProt O75882)	0.183 °C	2.09 °C

Complete entries, quoted from the list:
UniProt O43716 as listed: melting temperature shift (MBE1 concentration: 100 nM): 0.898 °C; melting temperature shift (MBE1 concentration: 1 uM): 1.86 °C
PPM1B (UniProt O75688) as listed: melting temperature shift (MBE1 concentration: 100 nM): -0.407 °C; melting temperature shift (MBE1 concentration: 1 uM): 0.281 °C
NDUFS2 (UniProt O75306) as listed: melting temperature shift (MBE1 concentration: 100 nM): -0.44 °C; melting temperature shift (MBE1 concentration: 1 uM): 0.189 °C
